{"source": "PubChem BioAssay AID1347076", "about": "(National Center for Advancing Translational Sciences (NCATS), 2019)", "note": "Among all 400,000 compounds or so, about 13,000 (3.2%) were called active. The shares of active, inactive and inconclusive entries below differ from those in the screen. Calls follow the shape of the dose curve; as a rule, active = well fitted cell-killing curve with a large enough effect; inconclusive = small, poorly fitted or top-dose-only effect, or effect the other way; inactive = flat fitted curve, though single readings scatter. Potencies of inconclusive entries are doubtful fits and often do not repeat. % is scaled to controls: 0 for no effect and ±100 for the full control effect; potency is read from the fitted curve at half-maximal effect."}
{"experiment": "qHTS assay for MDR1-selective chemotherapeutics: Primary screen using the drug-selected MDR subline cells KB-V1; also: nearly all actives have a fitted effect of over 60% in size", "details": "KB-V1 MDR cells viability, CellTiter-Glo, 72 h; activity change, negative = cytotoxicity: at 46.1 µM (top of the series)", "procedure,_shortened": "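KB-V1, DMEM (no phenol red) + 10% FBS; cpd pin-transferred, titration series; 72 h, 37 degrees C; CellTiter-Glo, luminescence. Data normalized, curve-fit.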"}
{"smiles": "Cc1cccc(C)c1NC(=S)N/N=C/c1ccc(OCCC(C)C)cc1", "Potency": "inconclusive: 29.1 µM [cytotoxic, single point]"}
{"smiles": "CCc1cc(=O)[nH]c(SCCc2ccccc2)n1", "Potency": "active: 8.2 µM"}
{"smiles": "Cc1cccc(C)c1NC(=O)C(C1CC1)n1c(=O)c(-c2cc3ccccc3[nH]2)nc2ccccc21", "note": "(centres undefined)", "Potency": "inconclusive: 23.1 µM [cytotoxic, single point]"}
{"smiles": "CCOC(=O)C[C@H]1c2ccc(C(F)(F)F)cc2S(=O)(=O)N1c1cccc(OC)c1", "Potency": "inconclusive: 16.4 µM [cytotoxic, single point]"}
{"smiles": "O=C(Nc1ccc(Cl)cc1)N1CCN(c2ccccc2)CC1", "Potency": "inactive"}
{"smiles": "COc1ccc2c(c1)c1c(c(=O)n(-c3cccc(Cl)c3)c(=O)n1CC(=O)N1CCCC1)n2C", "Potency": "inconclusive: 11.6 µM [cytotoxic, partial curve, poor fit]"}
{"smiles": "CCOc1ccc2[nH]c(=O)c(=O)[nH]c2c1", "Potency": "inconclusive: 10.3 µM [cytotoxic, partial curve]"}
{"smiles": "Fc1cccc(CCN2CCNC[C@@H]2c2ccccc2)c1", "activity change, negative = cytotoxicity": "inconclusive: 18.6%"}
{"smiles": "COc1cc(/C=C2\\C(=N)N3N=C(S(C)(=O)=O)SC3=NC2=O)cc(OC)c1OCCOc1ccccc1C", "Potency": "inactive"}
{"smiles": "Cc1ccc(-c2cc(C(=O)Oc3ccccc3)c3cc(C)ccc3n2)cc1", "Potency": "inconclusive: 13 µM [rising, partial curve, poor fit]"}
{"smiles": "CC(c1ccccc1)n1cc(C(=O)NCC2COc3ccccc3O2)nn1", "note": "(centres undefined)", "Potency": "inactive"}
{"smiles": "Cc1ccc2oc3c(c(=O)c2c1)C(c1cccc(O)c1)N(c1ccccn1)C3=O", "note": "(centres undefined)", "activity change, negative = cytotoxicity": "inconclusive: -74.7%"}
{"smiles": "Cc1cc2occ(CC(=O)N(C)CC(=O)Nc3cccc(F)c3)c2cc1C", "Potency": "inactive"}
{"smiles": "O=C(Nc1cccnc1)c1sc(Nc2ccccc2)nc1-c1ccccc1", "Potency": "active: 14.6 µM"}
{"smiles": "Cc1cc(C)n(-c2nc(C)nc(NCc3ccccc3)n2)n1", "Potency": "inconclusive: 11.6 µM [cytotoxic, partial curve]"}
{"smiles": "COc1ccc(CCC(=O)OCC(=O)NCc2ccc3c(c2)OCO3)cc1", "Potency": "inconclusive: 18.4 µM [rising, single point]"}
{"smiles": "COc1ccc(CCN2C(=O)CC(NNC(=O)c3ccccc3Br)C2=O)cc1", "note": "(centres undefined)", "Potency": "inconclusive: 13 µM [cytotoxic, partial curve]"}
{"smiles": "CCCN(CC(=O)Nc1cc(C)on1)CC(=O)Nc1ccc(F)c(F)c1F", "Potency": "active: 4.61 µM"}
{"smiles": "Cn1nc(C(F)(F)F)c(-c2ccc(Br)cc2)c1NC(=O)Nc1ccc(F)cc1F", "Potency": "inconclusive: 18.4 µM [cytotoxic, single point]"}
{"smiles": "Cc1cc(NC(=O)C2CCN(S(=O)(=O)c3ccc4[nH]c(=O)oc4c3)CC2)ccc1Br", "Potency": "inactive"}
{"smiles": "O=S(=O)(c1cccs1)N1CCN(c2ncccn2)CC1", "Potency": "inconclusive: 20.6 µM [cytotoxic, partial curve]"}
{"smiles": "Fc1ccc(CSc2nnc(-c3cnccn3)n2Cc2ccco2)cc1", "Potency": "inactive"}
{"smiles": "O=C(CSc1nnc(-c2ccc(OC(F)F)cc2)o1)N1CCOCC1", "Potency": "inconclusive: 29.1 µM [cytotoxic, single point]"}
{"smiles": "CCCc1ccc(C(=O)NC(=O)c2ccccc2O)cc1", "Potency": "inconclusive: 14.6 µM [cytotoxic, partial curve]"}
{"smiles": "CCOc1ccccc1NC(=O)Cn1ccn(Cc2ccc(C)cc2)c(=O)c1=O", "Potency": "inactive"}
{"smiles": "CCOC(=O)Cn1nc(C)c(NC(=O)COc2ccc(Cl)cc2C)c1C", "Potency": "inconclusive: 23.1 µM [cytotoxic, single point]"}
{"smiles": "CCOC(=O)C1(Cc2cccc(Cl)c2)CCCN(C(=O)CN2C(=O)CSC2=O)C1", "note": "(centres undefined)", "Potency": "inactive"}
{"smiles": "CCc1c(C)nc2ncnn2c1NCCc1ccc(Cl)cc1", "Potency": "inconclusive: 6.51 µM [cytotoxic, full curve]"}
{"smiles": "CCCCOc1ccc(/C=C/C(=O)Nc2ccc(C(N)=O)cc2)cc1", "Potency": "inconclusive: 29.1 µM [rising, single point]"}
{"smiles": "CCOC(=O)C1CCN(S(=O)(=O)c2cccc(-c3cn4cc(C)ccc4n3)c2)CC1", "Potency": "inactive"}
{"smiles": "COCCCNCCC(CCC(C)C)c1ccc2c(c1)OCO2", "note": "(centres undefined)", "Potency": "inconclusive: 20.6 µM [cytotoxic, partial curve, poor fit]"}
{"smiles": "COc1ccc(-c2cc(=Nc3c(C)n(C)n(-c4ccccc4)c3=O)c3ccccc3o2)cc1", "Potency": "inconclusive: 11.6 µM [cytotoxic, partial curve]"}
{"smiles": "CCN(CC)C(=O)[C@H]1C[C@H](CC(=O)NCC23CC4CC(CC(C4)C2)C3)C(=O)N2CCc3c([nH]c4cc(CCC(=O)N(C)C)ccc34)[C@]12C", "Potency": "inconclusive: 0.82 µM [rising, full curve, poor fit]"}
{"smiles": "CC(C)[C@H](NC(=O)c1ccc(Cl)c([N+](=O)[O-])c1)C(=O)NCc1ccc(F)cc1", "Potency": "inconclusive: 8.2 µM [cytotoxic, partial curve]"}
{"smiles": "Cc1cccc2nc(-c3cccc(NS(=O)(=O)c4ccccc4)c3)cn12", "Potency": "inactive"}
{"smiles": "Cc1ccc(C)c(CSc2nc3ccncc3n2CC(=O)Nc2ccc(N(C)C)cc2)c1", "Potency": "inactive"}
{"smiles": "CN(c1ccc(F)cc1)S(=O)(=O)c1ccc(Cl)c(C(=O)NCC(c2ccco2)N2CCCCC2)c1", "note": "(centres undefined)", "Potency": "inconclusive: 6.51 µM [cytotoxic, partial curve]"}
{"smiles": "CCC(C)(C)n1nnnc1C(c1cccnc1)N1CCCc2ccccc21", "note": "(centres undefined)", "Potency": "inconclusive: 10.3 µM [cytotoxic, partial curve]"}
{"smiles": "O=C(CSCc1ccccc1Cl)NCCSc1ccccn1", "Potency": "inconclusive: 18.4 µM [cytotoxic, partial curve, poor fit]"}
{"smiles": "c1ccc2c(c1)CSc1sccc1C2=C1CCNCC1", "Potency": "inconclusive: 29.1 µM [cytotoxic, single point]"}
{"smiles": "Nn1c(SCC(=O)Nc2ccc3c(c2)OCO3)nnc1-c1ccccc1", "Potency": "inconclusive: 20.6 µM [cytotoxic, single point]"}
{"smiles": "Cc1cc(-n2c(C)cc(C(=O)CN3C(=O)NC4(CCCCC4)C3=O)c2C)no1", "Potency": "inconclusive: 5.8 µM [cytotoxic, partial curve, poor fit]"}
{"smiles": "NC(=O)c1c(NC(=O)c2c(F)cccc2F)sc2c1CCN(Cc1ccccc1)C2", "Potency": "inactive"}
{"smiles": "COc1ccc2c(c1OC)C(=O)N(c1ccc3c(c1)CCC3)C2=O", "Potency": "inconclusive: 35.5 µM [cytotoxic, single point]"}
{"smiles": "COc1cc(NC(=O)c2cccs2)c(OC)cc1NC(=O)CCC(=O)Nc1ccc(C)cc1", "Potency": "inconclusive: 1.46 µM [cytotoxic, full curve]"}
{"smiles": "CC(C)(C)OCC1CO1", "note": "(centres undefined)", "Potency": "inconclusive: 5.17 µM [rising, partial curve, poor fit]"}
{"smiles": "N#CC1C(=O)NC(=O)CC12CCCCC2", "note": "(centres undefined)", "Potency": "inactive"}
{"smiles": "CCN(CC)CCOC(=O)C1(c2ccc([N+](=O)[O-])cc2)CCCC1", "Potency": "inconclusive: 29.1 µM [cytotoxic, partial curve, poor fit]"}
{"smiles": "CO[C@H]1C[C@@H]2CC[C@@H](C)[C@@](O)(O2)C(=O)C(=O)N2CCCC[C@H]2C(=O)O[C@H]([C@H](C)C[C@@H]2CC[C@@H](O)[C@H](OC)C2)CC(=O)[C@H](C)/C=C(/C)[C@@H](O)[C@@H](OC)C(=O)[C@H](C)C[C@H](C)C=C/C=C\\C=C/1C", "Potency": "inconclusive: 29.1 µM [cytotoxic, single point]"}
{"smiles": "O=C(c1cccs1)N1CCN(Cc2ccc3c(c2)OCO3)CC1", "Potency": "inactive"}
{"smiles": "O=C(CN1CCN(C2CCCCC2)CC1)NCCC1=CCCCC1", "Potency": "inactive"}
{"smiles": "COc1ccc(-c2nc3c(C)cc(Br)cn3c2Cc2ccc(C)cc2)cc1OC", "Potency": "inconclusive: 25.9 µM [cytotoxic, single point]"}
{"smiles": "CCN(CC)C(=O)c1cccc(-c2csc(C(C)(NC(C)=O)c3ccc(OC)cc3)n2)c1", "note": "(centres undefined)", "Potency": "inactive"}
{"smiles": "Fc1ccccc1Cn1c(-c2ccccc2)nc2ccccc21", "Potency": "inconclusive: 29.1 µM [cytotoxic, single point]"}
{"smiles": "N#Cc1ccc(C(=O)Nc2cc(-c3ccc(F)cc3)nn2-c2ccccc2)cc1", "Potency": "inactive"}
{"smiles": "CCOC(=O)c1c(NC(=O)c2cccs2)sc(CC)c1-c1cccs1", "Potency": "active: 18.4 µM"}
{"smiles": "NC(=O)[C@H]1CC2(CC(c3cccc(NC(=O)CC(c4ccccc4)c4ccccc4)c3)=NO2)CN1C(=O)c1ccccc1C(=O)c1ccccc1", "note": "(some centres undefined)", "Potency": "inconclusive: 29.1 µM [rising, partial curve, poor fit]"}
{"smiles": "COCCN1Cc2cccc(C(=O)NC3CCCCCC3)c2C1=O", "Potency": "inconclusive: 5.8 µM [cytotoxic, partial curve]"}
{"smiles": "CCN(C(=O)c1cc2c(=O)[nH]c3ccc(C)cc3c2s1)c1ccccc1C", "Potency": "inconclusive: 18.4 µM [cytotoxic, single point]"}
{"smiles": "CCN(CC)CCN1C(=O)C(=O)/C(=C(/O)c2ccc(C)cc2)C1c1cccnc1", "note": "(centres undefined)", "Potency": "inactive"}
{"smiles": "CC1CCCC(C)N1C(=O)CSc1nnc(COc2cccc3cccnc23)o1", "note": "(centres undefined)", "Potency": "inconclusive: 18.4 µM [cytotoxic, single point]"}
{"smiles": "O=C(/C=C/c1ccccc1)NC(=O)c1ccccc1O", "Potency": "inactive"}
{"smiles": "O=c1c2ccccc2nc(COc2ccccc2)n1/N=C/c1cn[nH]c1-c1ccccc1", "Potency": "active: 20.6 µM"}
{"smiles": "CCOC(=O)c1c(C)c(C(=O)N(C)C2CCCCC2)c(C)n1C", "Potency": "active: 14.6 µM"}
{"smiles": "CN(Cc1ccc(Cl)cc1Cl)C(=O)C1CC(=O)N(Cc2ccco2)C1", "note": "(centres undefined)", "Potency": "inactive"}
{"smiles": "N#C/C(=C/C1=C(N2CCOCC2)C(=C/c2ccc(Cl)cc2)/CC1)C(=O)Nc1ccccc1F", "activity change, negative = cytotoxicity": "inconclusive: -101%"}
{"smiles": "CC(=O)c1ccc(NC(=O)COCc2cc(-c3ccco3)on2)cc1", "Potency": "inactive"}
{"smiles": "CC(C)c1c(C(=O)N/N=C/C2CC=CCC2)nnn1-c1nonc1N", "note": "(centres undefined)", "Potency": "inactive"}
{"smiles": "CCc1ccc2oc(-c3cc(NC(=O)c4cccnc4)cc(C)c3O)nc2c1", "Potency": "inconclusive: 9.2 µM [cytotoxic, partial curve, poor fit]"}
